# Assay results reported in PubChem BioAssay AID540276 (National Center for Advancing Translational Sciences (NCATS), 2011).
# Out of some 300,000 compounds screened, about 5,400 (1.8%) were called active. The shares of active, inactive and inconclusive entries below differ from those in the screen. Calls come from the whole dose curve; tested in HEK293 cells. Where the call is inconclusive, the potency comes from a doubtful curve fit.
# Test: qHTS for inhibitors of binding or entry into cells for Marburg Virus
# Conditions: Marburg virus pseudotyped entry inhibition, cell reporter; series mostly up to 37.8 µM
# Potency is the fitted concentration of half-maximal effect.
row,SMILES,Potency
1,O=C(Nc1ccc(Cl)c(C(F)(F)F)c1)c1ccncc1,"inconclusive: 3.16 µM [inhibitor, partial curve, poor fit]"
2,COc1ccc(CNC(=O)C(CC(C)C)NS(=O)(=O)c2ccc3c(c2)CCN3C(C)=O)cc1 (stereo unspecified),inactive
3,COc1cc(/C=N/n2cnc3scc(-c4cccs4)c3c2=O)cc(OC)c1OC,"inconclusive: 0.501 µM [inhibitor, full curve, poor fit]"
4,O=c1cc(-c2c(F)c(F)c(F)c(F)c2F)oc2ccccc12,active: 18.3 µM
5,C/C(=N/NC(=O)c1ccc(C(C)(C)C)cc1)c1ccccn1,"inconclusive: 2.51 µM [inhibitor, full curve, poor fit]"
6,COc1ccc(-c2cc(C(=O)Oc3ccc(C#N)cc3)no2)cc1,inactive
7,COc1ccc(S(=O)(=O)N2CCOCC2)cc1NC(=O)Cc1sc(C)nc1-c1ccc(F)cc1,inactive
8,CCN(CC(=O)N1CCC(C)CC1)S(=O)(=O)c1ccc(C)cc1,inactive
9,COC(=O)c1cn(-c2ccccc2)nc1-c1cccnc1,"inconclusive: 7.3 µM [inhibitor, partial curve, poor fit]"
10,Cc1cc(C)c(-c2csc(-c3cc4ccccc4oc3=O)n2)cc1C,inactive
11,CCCN1CCN(CCNC(=O)Nc2cc(Cl)c(OC)cc2OC)CC1,inactive
12,COc1ccc(C(C)C)cc1S(=O)(=O)Nc1ccc(Cl)cn1,"inconclusive: 4.11 µM [inhibitor, full curve, poor fit]"
13,Cc1onc(-c2ccccc2Cl)c1C(=O)NCc1cccnc1,inactive
14,Cc1c(NC(=O)NC(=O)c2ccc(F)cc2)c(=O)n(-c2ccccc2)n1C,inactive
15,CCCCn1c(N)c(N(CCOC)C(=O)c2cccc(S(=O)(=O)N(CC)c3ccccc3)c2)c(=O)[nH]c1=O,"inconclusive: 11.2 µM [inhibitor, single point]"
16,CC(CCc1ccccc1)NCC(O)c1cccc([N+](=O)[O-])c1 (stereo unspecified),"inconclusive: 14.1 µM [inhibitor, partial curve, poor fit]"
17,CCCOc1ccc(C(=O)C(c2ccccc2)N2CCOCC2)cc1 (stereo unspecified),inactive
18,COc1ccc(N2CCN(C(=O)C3CCC(Cn4c(=S)[nH]c5ccccc5c4=O)CC3)CC2)cc1 (stereo unspecified),active: 10.3 µM
19,Cn1nc(C(=O)OCC(=O)Nc2ccc3ccccc3c2)c2ccccc2c1=O,"inconclusive: 6.31 µM [activator, partial curve, poor fit]"
20,Oc1ccc(Cc2ccc(Cl)cc2)c(O)c1,inactive
21,Cc1nn2c3c(cnc2c1-c1ccc(F)cc1)C(=O)CC(c1ccccc1)C3 (stereo unspecified),inactive
22,CSc1nc(C)cc(OCC(=O)N/N=C/c2ccccc2O)n1,active: 2.82 µM
23,C[C@@H]1O[C@H](O[C@H]2C[C@@H](O)[C@]3(CO)[C@H]4[C@H](O)C[C@]5(C)[C@@H](C6=CC(=O)OC6)CC[C@@]5(O)[C@H]4CC[C@]3(O)C2)[C@@H](O)[C@H](O)[C@H]1O,active: 0.0651 µM
24,Cc1ccc(CNC(=O)CCCn2c(=O)c3ccccc3n(Cc3ccccc3Cl)c2=O)cc1,"inconclusive: 12.6 µM [activator, partial curve, poor fit]"

row,SMILES,Potency
1,Cn1c(=O)[nH]c(=O)c2c1nc(Br)n2C/C=N/Nc1ccccc1,"inconclusive: 7.08 µM [inhibitor, full curve, poor fit]"
2,CS(=O)(=O)c1cccc(C(=O)Nc2ccc(-c3nc4ccccc4[nH]3)cc2)c1,"inconclusive: 3.55 µM [activator, partial curve, poor fit]"
3,COc1cc(C)nc(OCCNC(=O)COc2ccc(Cl)cc2Cl)n1,"inconclusive: 0.794 µM [inhibitor, full curve, poor fit]"
4,COc1ccc(-c2csc(NC(=O)CN3C(=O)CCC3=O)n2)c(OC)c1,"inconclusive: 0.501 µM [activator, full curve]"
5,COc1ccc(-c2cc(C(F)(F)F)nc(SCC(=O)N3CCCCC3)n2)cc1,inactive
6,O=C(C=Cc1ccccc1)c1cccs1,"inconclusive: 35.5 µM [inhibitor, single point]"
7,CCCCNC(=O)c1cc(-c2ccc(F)cc2)on1,"inconclusive: 0.326 µM [activator, partial curve, poor fit]"
8,CCOc1ccc(CNCCN2CCCC2)cc1,"inconclusive: 12.6 µM [inhibitor, partial curve, poor fit]"
9,O=C(CSc1nnnn1C1CC1)Nc1cc(S(=O)(=O)N2CCCC2)ccc1Cl,"inconclusive: 7.08 µM [inhibitor, full curve, poor fit]"
10,CCOC(=O)CSc1n[nH]c(NC(=O)c2ccccc2)n1,"inconclusive: 18.3 µM [activator, partial curve, poor fit]"
11,Cc1ccc(OCC(=O)N(Cc2ccc(N(C)C)cc2)CC2CCCO2)cc1C (stereo unspecified),inactive
12,Cc1ccc(SCC(=O)NCCSC(C)(C)C)cc1,"inconclusive: 35.5 µM [activator, single point]"
13,COc1ccc(-n2ncc(Cl)c(Cl)c2=O)cc1,"inconclusive: 5.62 µM [inhibitor, full curve, poor fit]"
14,COc1ccccc1N1CCN(Cc2ccc3c(c2)OCO3)CC1,"inconclusive: 15.8 µM [inhibitor, single point]"
15,N#CC1=C(N)n2c(s/c(=C\c3ccco3)c2=O)=C(C#N)C1c1ccco1 (stereo unspecified),"inconclusive: 29.1 µM [inhibitor, single point]"
16,O=C(CN1CCc2ccccc2C1)Nc1ccccc1C(=O)NC1CC1,"inconclusive: 5.62 µM [activator, single point]"
17,O=C(c1cc2ccccc2oc1=O)N1CCCC1,"inconclusive: 0.562 µM [activator, single point]"
18,Cc1c(C)c2ccc(O[C@@H]3O[C@H](CO)[C@H](O)[C@H](O)[C@H]3O)c(C)c2oc1=O,"inconclusive: 3.55 µM [activator, partial curve, poor fit]"
19,CSCCC(N=C1NS(=O)(=O)c2ccccc21)C(=O)N1CCCC(C(N)=O)C1 (stereo unspecified),inactive
20,O=C1c2ccccc2C(=O)N1CCCCSc1nnnn1-c1ccccc1,inactive
21,COc1ccccc1C(=O)O/N=C(\N)c1ccccn1,active: 3.55 µM
22,CC(C)(C)c1cc(CN(CCO)CCO)c(O)c(C(C)(C)C)c1,"inconclusive: 14.1 µM [inhibitor, partial curve, poor fit]"
23,CCc1ccc(N(C(=O)CNC(=O)c2ccco2)C(C(=O)NCC2CCCO2)c2ccccc2)cc1 (stereo unspecified),"inconclusive: 11.2 µM [inhibitor, single point]"
24,CCN(CC)S(=O)(=O)c1ccc(C(=O)NCC2CCCCC2)cc1,inactive

# Single entries from the list:
# COc1cc(/C=N/n2cnc3scc(-c4cccs4)c3c2=O)cc(OC)c1OC | Potency: inconclusive: 0.501 µM [inhibitor, full curve, poor fit]
# COc1ccccc1C(=O)O/N=C(\N)c1ccccn1 | Potency: active: 3.55 µM
# COc1ccc(N2CCN(C(=O)C3CCC(Cn4c(=S)[nH]c5ccccc5c4=O)CC3)CC2)cc1 (stereo unspecified) | Potency: active: 10.3 µM

# Carrying on:

row,SMILES,Potency
1,CCOC(=O)CC1(CC(=O)OCC)NC(=O)c2c(C)sc(C(=O)OCC)c2N1,inactive
2,Nc1[nH][nH]c(=O)c1N=Nc1ccc2c(c1)OCO2,"inconclusive: 2 µM [activator, partial curve, poor fit]"
3,O=c1[nH]c2ccccc2c2nc(-c3cccc(S(=O)(=O)N4CCCC4)c3)nn12,inactive
4,CCC(C)[C@H](NC(=O)NCc1ccco1)C(=O)O (stereo partly specified),inactive
5,N/C(=N\OC(=O)COc1cc(Cl)c(Cl)cc1Cl)c1ccccn1,"inconclusive: 2.82 µM [activator, partial curve, poor fit]"
6,Cc1ccc(C)c(CN2CCC(n3nnc4cc(F)ccc43)CC2)c1,"inconclusive: 9.2 µM [inhibitor, single point]"
7,CCOC(=O)c1c(NC(=S)N2CCOCC2)sc2c1CCN(C(=O)OCC)C2,"inconclusive: 35.5 µM [inhibitor, single point]"
8,COc1cccc(C(=O)Nc2nc3nc(C)c(Cc4ccccc4)c(=O)n3[nH]2)c1,inactive
9,Cc1cccc(N2C(=O)C(CC(=O)Nc3ccccc3)N(C3CCCCC3)C2=O)c1 (stereo unspecified),inactive
10,FC(F)(F)c1ccc(NCCc2ccccc2)nc1,"inconclusive: 35.5 µM [activator, single point]"
11,CCCN=Cc1sc2ccc(OCC)cc2c1O,"inconclusive: 4.11 µM [activator, full curve, poor fit]"
12,COc1cccc(C2/C(=C(\O)c3ccc4c(c3)OCO4)C(=O)C(=O)N2CCN(C)C)c1OC (stereo unspecified),inactive
13,CCCOc1ccc(-c2nc(SCc3ccccc3)[nH]c(=O)c2C#N)cc1OC,inactive
14,CCOC(=O)C(C)Sc1nc2c(c(-c3cccs3)c1C#N)CCC2 (stereo unspecified),"inconclusive: 25.1 µM [inhibitor, single point]"
15,Cc1ccc(C)n1-n1c(C)nc2scc(-c3ccccc3)c2c1=O,"inconclusive: 29.1 µM [inhibitor, single point]"
16,Clc1ccc(-c2nnc(CCc3ccccc3)o2)c(Cl)c1,inactive
17,CC1CCCN(C(=O)c2cn(-c3ccccc3)nc2-c2cccnc2)C1 (stereo unspecified),inactive
18,COCc1ccc(C(=O)N2CCCC(N(C)CCc3ccc(OC)c(OC)c3)C2)s1 (stereo unspecified),inactive
19,Cc1ccc(C)c(OCCn2cc(/C=C(\C#N)C(=O)NCc3cccs3)c3ccccc32)c1,"inconclusive: 23.1 µM [inhibitor, single point]"
20,CCn1c(SCc2ccc(C(=O)OC)o2)nc2sc3c(c2c1=O)CCCC3,"inconclusive: 18.3 µM [inhibitor, single point]"
21,CCOc1ccccc1NC(=O)COC(=O)CNS(=O)(=O)c1ccc(C)cc1,"inconclusive: 1.26 µM [activator, single point]"
22,S=c1[nH]nc(-c2ccc3ccccc3n2)n1-c1ccc(Cl)cc1,"inconclusive: 3.55 µM [activator, partial curve, poor fit]"
23,CC(C)CN(C(=O)CN(C)CC(=O)Nc1ccccc1C#N)c1c(N)n(CC(C)C)c(=O)[nH]c1=O,inactive
